Laboratory results: publication PMC6944445
No constants are given. Whether binding was seen depends on the method and setting. Binding seen in cells or lysates may run through a third protein. Where a sequence is shown, tags or fusion partners need not be part of it.

Protein sequences, listed by entry. Tags and fused reporters are not part of them.
UniProt P34684: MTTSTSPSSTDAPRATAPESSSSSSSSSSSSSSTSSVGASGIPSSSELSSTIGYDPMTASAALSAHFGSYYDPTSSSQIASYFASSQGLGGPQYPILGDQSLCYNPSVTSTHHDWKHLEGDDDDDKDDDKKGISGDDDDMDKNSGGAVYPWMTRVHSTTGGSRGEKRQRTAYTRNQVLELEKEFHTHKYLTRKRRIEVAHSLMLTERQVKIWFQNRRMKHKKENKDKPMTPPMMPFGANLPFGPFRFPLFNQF

Biological target: T1, Flag-tagged UNC-3 (C. elegans) (UniProt Q93705)
T1 sequence: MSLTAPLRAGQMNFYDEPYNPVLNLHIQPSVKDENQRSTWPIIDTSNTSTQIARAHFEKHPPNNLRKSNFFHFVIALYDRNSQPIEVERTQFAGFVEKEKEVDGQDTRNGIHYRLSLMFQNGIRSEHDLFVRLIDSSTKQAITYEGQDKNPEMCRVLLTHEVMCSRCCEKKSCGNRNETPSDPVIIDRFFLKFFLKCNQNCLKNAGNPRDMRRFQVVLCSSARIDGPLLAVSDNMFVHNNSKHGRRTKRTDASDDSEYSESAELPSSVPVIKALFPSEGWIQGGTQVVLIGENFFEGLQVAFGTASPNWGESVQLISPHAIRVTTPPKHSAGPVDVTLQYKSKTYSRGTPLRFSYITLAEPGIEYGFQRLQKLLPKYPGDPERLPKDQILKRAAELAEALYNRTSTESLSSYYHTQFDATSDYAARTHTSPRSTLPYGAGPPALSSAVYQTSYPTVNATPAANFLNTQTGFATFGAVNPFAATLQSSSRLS
Assay: co-IP; HEK293 cells co-transfected with Flag-tagged UNC-3 and Myc-tagged LIN-39; 100 ug of cell lysate, immunoprecipitation of Flag-UNC-3 with anti-Flag antibody coated beads, western blot with anti-Myc and anti-Flag

binding: no binding
Substance: Myc-tagged LIN-39 (from UniProt P34684 1-253)
